# ± gives the standard deviation of the averaged measurements. The list shows a part of the results.
# Sequences of proteins named here, by UniProt entry; tags and fusion partners are left off. A change or cut given only in a name is not applied to a line headed by its entry.
# UniProt Q6RFH5: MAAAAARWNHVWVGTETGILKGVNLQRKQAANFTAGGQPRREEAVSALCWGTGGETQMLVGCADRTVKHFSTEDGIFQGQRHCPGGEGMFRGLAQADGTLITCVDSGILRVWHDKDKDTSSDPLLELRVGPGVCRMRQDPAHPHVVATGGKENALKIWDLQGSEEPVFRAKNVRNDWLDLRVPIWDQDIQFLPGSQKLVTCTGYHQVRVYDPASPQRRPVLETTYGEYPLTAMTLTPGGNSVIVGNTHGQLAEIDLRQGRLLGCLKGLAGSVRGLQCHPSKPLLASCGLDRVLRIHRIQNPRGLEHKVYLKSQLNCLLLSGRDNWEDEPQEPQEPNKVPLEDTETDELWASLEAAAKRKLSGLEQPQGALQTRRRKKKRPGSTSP
# UniProt Q6P4F2: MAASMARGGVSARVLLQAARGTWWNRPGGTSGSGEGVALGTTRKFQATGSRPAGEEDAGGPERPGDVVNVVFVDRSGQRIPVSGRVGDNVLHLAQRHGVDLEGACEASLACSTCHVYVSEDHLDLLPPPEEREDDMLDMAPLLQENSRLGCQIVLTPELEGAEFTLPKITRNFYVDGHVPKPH
# UniProt Q7Z7H5: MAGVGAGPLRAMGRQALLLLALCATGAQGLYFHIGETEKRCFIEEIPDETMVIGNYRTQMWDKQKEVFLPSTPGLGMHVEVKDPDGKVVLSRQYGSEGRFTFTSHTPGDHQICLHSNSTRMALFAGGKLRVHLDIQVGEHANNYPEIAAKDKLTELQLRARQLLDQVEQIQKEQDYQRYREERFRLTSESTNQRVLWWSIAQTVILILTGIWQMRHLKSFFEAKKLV
# UniProt Q7Z4H3: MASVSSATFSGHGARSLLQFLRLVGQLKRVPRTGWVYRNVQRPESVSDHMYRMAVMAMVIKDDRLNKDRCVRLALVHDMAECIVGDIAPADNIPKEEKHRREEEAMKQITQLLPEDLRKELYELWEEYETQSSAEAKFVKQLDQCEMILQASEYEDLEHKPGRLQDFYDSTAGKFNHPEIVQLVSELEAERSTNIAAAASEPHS
# UniProt Q86V85: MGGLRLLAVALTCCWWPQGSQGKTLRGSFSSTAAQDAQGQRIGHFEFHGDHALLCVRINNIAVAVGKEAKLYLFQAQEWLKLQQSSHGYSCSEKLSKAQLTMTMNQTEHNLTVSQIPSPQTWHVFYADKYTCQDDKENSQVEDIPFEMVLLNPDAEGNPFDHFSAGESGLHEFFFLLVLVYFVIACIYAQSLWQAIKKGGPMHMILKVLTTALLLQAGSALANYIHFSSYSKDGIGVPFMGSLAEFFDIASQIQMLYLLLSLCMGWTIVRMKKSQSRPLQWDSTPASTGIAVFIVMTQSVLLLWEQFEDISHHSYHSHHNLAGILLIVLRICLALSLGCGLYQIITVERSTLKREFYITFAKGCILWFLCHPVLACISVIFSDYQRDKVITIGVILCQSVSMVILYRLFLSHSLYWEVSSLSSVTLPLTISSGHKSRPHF
# UniProt Q6IBS0: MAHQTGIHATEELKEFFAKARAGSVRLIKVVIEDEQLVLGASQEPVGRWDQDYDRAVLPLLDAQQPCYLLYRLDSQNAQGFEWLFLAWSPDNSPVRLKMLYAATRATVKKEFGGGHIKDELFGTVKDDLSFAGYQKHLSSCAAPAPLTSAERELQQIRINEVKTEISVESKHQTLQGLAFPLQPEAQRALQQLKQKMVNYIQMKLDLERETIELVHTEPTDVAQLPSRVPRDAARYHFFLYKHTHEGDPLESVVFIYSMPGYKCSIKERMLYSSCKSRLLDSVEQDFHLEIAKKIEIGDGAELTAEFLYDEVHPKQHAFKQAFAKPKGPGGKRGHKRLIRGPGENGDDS
# UniProt Q5VWN6: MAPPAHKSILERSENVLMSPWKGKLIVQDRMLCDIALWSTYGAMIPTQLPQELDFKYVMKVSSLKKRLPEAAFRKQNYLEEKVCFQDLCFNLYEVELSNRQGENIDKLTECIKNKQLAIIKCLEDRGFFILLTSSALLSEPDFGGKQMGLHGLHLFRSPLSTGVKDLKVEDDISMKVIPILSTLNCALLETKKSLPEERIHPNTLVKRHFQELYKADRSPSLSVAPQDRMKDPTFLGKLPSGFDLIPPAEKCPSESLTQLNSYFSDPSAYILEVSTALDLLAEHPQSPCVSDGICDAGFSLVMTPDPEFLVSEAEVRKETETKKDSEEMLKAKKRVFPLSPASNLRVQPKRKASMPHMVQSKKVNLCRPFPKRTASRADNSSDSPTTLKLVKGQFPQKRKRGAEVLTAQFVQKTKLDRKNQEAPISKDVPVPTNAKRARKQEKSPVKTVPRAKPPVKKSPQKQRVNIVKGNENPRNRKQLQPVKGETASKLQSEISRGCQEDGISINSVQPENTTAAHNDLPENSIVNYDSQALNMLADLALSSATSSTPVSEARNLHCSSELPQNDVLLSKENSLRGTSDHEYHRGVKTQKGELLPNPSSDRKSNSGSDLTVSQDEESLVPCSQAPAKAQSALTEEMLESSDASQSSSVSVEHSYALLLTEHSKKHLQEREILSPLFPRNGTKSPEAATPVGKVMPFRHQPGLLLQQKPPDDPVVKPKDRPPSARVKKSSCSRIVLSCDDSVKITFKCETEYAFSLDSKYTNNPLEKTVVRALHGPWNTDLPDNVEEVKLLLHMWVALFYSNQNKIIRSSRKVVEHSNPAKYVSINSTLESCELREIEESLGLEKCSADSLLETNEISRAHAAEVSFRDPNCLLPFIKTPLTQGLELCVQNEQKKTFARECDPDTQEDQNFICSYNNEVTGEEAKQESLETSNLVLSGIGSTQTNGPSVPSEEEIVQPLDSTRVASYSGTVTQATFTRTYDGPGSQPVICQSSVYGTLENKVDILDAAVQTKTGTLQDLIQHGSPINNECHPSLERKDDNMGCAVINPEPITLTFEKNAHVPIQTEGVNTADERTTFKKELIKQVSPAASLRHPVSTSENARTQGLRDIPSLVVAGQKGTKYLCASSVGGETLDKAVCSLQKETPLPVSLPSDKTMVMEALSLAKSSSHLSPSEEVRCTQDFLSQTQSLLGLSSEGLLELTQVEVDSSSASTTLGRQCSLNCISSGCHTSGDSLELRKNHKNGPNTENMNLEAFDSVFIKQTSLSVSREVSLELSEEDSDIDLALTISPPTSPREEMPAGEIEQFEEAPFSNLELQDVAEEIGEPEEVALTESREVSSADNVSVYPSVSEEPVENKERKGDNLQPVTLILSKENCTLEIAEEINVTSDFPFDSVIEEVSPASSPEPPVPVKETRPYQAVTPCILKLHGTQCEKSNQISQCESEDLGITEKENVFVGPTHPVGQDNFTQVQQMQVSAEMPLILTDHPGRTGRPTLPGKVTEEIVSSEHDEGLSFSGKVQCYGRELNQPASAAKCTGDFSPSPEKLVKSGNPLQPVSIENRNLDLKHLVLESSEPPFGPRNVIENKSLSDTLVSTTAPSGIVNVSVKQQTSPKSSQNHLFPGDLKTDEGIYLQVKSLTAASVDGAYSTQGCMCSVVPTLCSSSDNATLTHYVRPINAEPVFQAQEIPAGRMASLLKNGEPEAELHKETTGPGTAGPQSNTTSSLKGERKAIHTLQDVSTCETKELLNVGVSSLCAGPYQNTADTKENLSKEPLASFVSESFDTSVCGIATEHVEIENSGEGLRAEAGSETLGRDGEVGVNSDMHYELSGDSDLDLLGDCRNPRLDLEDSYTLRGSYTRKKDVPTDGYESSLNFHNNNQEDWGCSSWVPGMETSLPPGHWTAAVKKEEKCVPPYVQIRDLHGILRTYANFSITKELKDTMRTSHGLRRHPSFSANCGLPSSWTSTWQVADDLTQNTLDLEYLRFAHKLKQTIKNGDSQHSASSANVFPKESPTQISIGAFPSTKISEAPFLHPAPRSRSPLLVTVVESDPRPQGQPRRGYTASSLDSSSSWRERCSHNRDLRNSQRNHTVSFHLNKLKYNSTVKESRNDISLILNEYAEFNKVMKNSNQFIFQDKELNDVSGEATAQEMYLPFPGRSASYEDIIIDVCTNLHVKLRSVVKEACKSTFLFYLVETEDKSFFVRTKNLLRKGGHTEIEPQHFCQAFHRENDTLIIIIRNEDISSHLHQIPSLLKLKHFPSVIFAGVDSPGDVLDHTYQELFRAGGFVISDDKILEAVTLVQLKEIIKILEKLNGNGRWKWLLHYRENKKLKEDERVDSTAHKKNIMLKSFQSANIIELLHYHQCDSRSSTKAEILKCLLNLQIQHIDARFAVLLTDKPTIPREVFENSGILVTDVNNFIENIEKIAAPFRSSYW
# UniProt Q7L266: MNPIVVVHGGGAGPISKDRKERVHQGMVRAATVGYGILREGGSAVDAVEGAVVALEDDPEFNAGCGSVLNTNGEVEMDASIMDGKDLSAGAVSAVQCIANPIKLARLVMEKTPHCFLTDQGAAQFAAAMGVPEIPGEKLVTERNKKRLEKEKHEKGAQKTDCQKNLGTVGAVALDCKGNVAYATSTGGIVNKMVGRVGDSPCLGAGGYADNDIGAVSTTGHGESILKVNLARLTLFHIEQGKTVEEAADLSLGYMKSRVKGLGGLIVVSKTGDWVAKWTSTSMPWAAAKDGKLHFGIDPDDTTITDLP
# UniProt Q6GMV3: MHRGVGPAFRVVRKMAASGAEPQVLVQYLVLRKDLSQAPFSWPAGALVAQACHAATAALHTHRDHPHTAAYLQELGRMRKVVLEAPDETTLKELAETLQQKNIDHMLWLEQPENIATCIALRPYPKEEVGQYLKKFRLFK
# UniProt Q86U42: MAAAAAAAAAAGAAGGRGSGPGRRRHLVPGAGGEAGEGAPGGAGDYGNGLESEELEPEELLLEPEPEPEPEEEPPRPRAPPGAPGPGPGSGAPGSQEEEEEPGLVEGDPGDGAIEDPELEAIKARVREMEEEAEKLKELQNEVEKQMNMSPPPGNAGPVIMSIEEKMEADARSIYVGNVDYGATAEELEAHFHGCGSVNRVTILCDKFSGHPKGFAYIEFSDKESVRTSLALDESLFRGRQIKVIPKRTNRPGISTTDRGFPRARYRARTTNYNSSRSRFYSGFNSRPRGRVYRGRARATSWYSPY
# UniProt Q6P1M0: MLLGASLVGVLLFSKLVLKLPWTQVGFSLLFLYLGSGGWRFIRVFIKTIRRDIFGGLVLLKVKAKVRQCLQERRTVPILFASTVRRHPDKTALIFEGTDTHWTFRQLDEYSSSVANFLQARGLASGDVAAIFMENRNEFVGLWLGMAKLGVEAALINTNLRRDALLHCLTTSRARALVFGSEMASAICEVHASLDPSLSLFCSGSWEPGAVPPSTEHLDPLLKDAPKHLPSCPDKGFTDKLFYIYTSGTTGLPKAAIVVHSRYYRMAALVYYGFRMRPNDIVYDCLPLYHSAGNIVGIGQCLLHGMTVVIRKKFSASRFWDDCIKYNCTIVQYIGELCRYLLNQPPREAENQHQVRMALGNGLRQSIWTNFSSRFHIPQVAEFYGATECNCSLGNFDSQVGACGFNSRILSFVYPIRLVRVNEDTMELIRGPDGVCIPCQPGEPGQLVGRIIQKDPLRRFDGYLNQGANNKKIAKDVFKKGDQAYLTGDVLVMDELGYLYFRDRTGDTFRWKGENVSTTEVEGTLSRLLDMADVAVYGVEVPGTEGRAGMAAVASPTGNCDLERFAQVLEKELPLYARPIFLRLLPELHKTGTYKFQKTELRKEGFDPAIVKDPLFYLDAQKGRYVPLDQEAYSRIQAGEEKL
# UniProt Q7Z5G4, whole entry: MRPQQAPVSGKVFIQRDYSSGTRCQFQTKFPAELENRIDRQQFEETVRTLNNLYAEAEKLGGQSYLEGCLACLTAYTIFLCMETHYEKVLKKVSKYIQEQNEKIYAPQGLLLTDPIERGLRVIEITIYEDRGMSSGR
# UniProt Q86WQ0: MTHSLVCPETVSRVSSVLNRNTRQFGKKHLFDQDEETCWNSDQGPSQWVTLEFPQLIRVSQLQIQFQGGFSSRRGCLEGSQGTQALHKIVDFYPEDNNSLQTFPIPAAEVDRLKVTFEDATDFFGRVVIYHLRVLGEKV
# UniProt Q69YN2: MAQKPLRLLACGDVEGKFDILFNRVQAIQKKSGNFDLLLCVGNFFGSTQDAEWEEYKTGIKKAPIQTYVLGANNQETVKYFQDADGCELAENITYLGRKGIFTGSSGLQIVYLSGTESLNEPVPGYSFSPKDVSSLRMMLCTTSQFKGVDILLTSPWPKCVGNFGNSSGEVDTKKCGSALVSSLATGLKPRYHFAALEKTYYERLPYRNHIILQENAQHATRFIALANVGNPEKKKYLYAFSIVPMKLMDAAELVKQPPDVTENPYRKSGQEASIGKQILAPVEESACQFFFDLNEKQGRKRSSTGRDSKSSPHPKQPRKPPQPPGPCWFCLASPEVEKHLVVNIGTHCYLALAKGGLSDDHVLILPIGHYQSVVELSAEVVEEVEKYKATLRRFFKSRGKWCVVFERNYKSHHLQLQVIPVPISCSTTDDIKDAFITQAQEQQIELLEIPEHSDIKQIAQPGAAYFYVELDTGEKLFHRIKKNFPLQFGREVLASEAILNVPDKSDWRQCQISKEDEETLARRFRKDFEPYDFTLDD
# UniProt Q86SZ2: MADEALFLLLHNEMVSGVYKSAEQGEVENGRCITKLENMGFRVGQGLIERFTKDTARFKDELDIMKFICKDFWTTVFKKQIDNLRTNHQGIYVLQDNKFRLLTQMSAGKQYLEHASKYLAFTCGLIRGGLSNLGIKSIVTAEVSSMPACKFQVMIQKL
# Compound: Nc1nc2c(ncn2[C@@H]2O[C@H](COP(=O)(O)OP(=O)(O)OP(=O)(O)O)[C@@H](O)[C@H]2O)c(=O)[nH]1 [guanosine triphosphate]
# Test: NP40-soluble protein abundance relative to vehicle (solubility fold change) (ratio); higher = more soluble protein in presence of GTP
# Method in brief: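 Crude Jurkat lysate, prepared by Dounce homogenisation, was exposed to eight concentrations from 0.1 to 10 mM for 10 min at room temperature and then 3 min at 37 °C. Solubilisation used 0.8% NP40 with benzonase for 60 min at 4 °C, followed by ultracentrifugation and TMT labelling of the supernatant for LC-MS/MS. After vsn normalisation of intensities, each value is the fold change against the detergent-processed vehicle within each replicate, across three independent experiments.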
Target,NP40-soluble protein abundance (concentration: 0.1mM),NP40-soluble protein abundance (concentration: 0.5mM),NP40-soluble protein abundance (concentration: 1mM),NP40-soluble protein abundance (concentration: 2mM),NP40-soluble protein abundance (concentration: 4mM),NP40-soluble protein abundance (concentration: 6mM),NP40-soluble protein abundance (concentration: 8mM),NP40-soluble protein abundance (concentration: 10mM)
UniProt Q68EM7 and related entries,0.985 ± 0.052,0.945 ± 0.032,0.966 ± 0.057,0.917 ± 0.013,0.935 ± 0.039,0.912 ± 0.028,0.937 ± 0.079,0.923 ± 0.044
IRF2BP2 (UniProt Q7Z5L9),0.949 ± 0.018,0.934 ± 0.05,0.997 ± 0.0063,0.99 ± 0.035,0.981 ± 0.034,0.96 ± 0.062,0.999 ± 0.049,1.02 ± 0.025
UniProt Q6RFH5 and related entries,1.2 ± 0.014,1.09 ± 0.025,1.155 ± 0.0063,1.1847 ± 0.00068,1.229 ± 0.0015,1.26 ± 0.098,1.3 ± 0.017,1.37 ± 0.063
NFXL1 (UniProt Q6ZNB6),1.04 ± 0.079,1.09 ± 0.1,1.05 ± 0.091,1.11 ± 0.067,1.13 ± 0.12,1.16 ± 0.13,1.12 ± 0.12,1.15 ± 0.11
UniProt Q7L4I2 and related entries,0.98 ± 0.099,0.999 ± 0.094,1.06 ± 0.013,0.991 ± 0.2,0.895 ± 0.11,0.918 ± 0.14,0.942 ± 0.06,0.951 ± 0.11
UniProt Q86SQ7 and related entries,0.967 ± 0.026,0.9735 ± 0.0059,1.1 ± 0.021,1.02 ± 0.09,0.959 ± 0.074,0.969 ± 0.082,0.995 ± 0.08,1.09 ± 0.15
FDX2 (UniProt Q6P4F2),1.03 ± 0.15,0.986 ± 0.14,0.952 ± 0.059,0.929 ± 0.094,0.972 ± 0.18,0.932 ± 0.11,1.03 ± 0.16,0.987 ± 0.12
TMED4 (UniProt Q7Z7H5),1 ± 0.02,1.03 ± 0.035,0.953 ± 0.055,0.959 ± 0.0098,0.943 ± 0.029,0.955 ± 0.047,0.966 ± 0.052,0.938 ± 0.068
THOC7 (UniProt Q6I9Y2),0.999 ± 0.13,1.15 ± 0.095,1.6 ± 0.23,1.92 ± 0.32,2.31 ± 0.58,2.51 ± 0.63,2.43 ± 0.56,2.78 ± 0.98
UniProt Q66K74 and related entries,0.983 ± 0.02,0.975 ± 0.04,0.949 ± 0.027,0.935 ± 0.043,0.933 ± 0.035,0.933 ± 0.068,0.96 ± 0.026,0.959 ± 0.053
HDDC2 (UniProt Q7Z4H3),0.793 ± 0.11,0.745 ± 0.12,1.05 ± 0.18,1.01 ± 0.091,0.978 ± 0.12,0.99 ± 0.13,0.88 ± 0.25,1.08 ± 0.2
GPR180 (UniProt Q86V85),1.09 ± 0.037,0.991 ± 0.059,0.982 ± 0.025,0.988 ± 0.075,1.034 ± 0.0034,1 ± 0.018,1.01 ± 0.067,0.964 ± 0.052
UniProt Q86TI0 and related entries,1.02 ± 0.067,1 ± 0.098,0.993 ± 0.096,0.969 ± 0.057,0.985 ± 0.06,0.971 ± 0.055,0.978 ± 0.11,0.929 ± 0.086
TWF2 (UniProt Q6IBS0),1.02 ± 0.035,1.09 ± 0.049,1.02 ± 0.017,1.02 ± 0.055,1.03 ± 0.08,1.01 ± 0.013,0.95 ± 0.032,0.951 ± 0.012
CROCC (UniProt Q5TZA2),1.03 ± 0.035,0.997 ± 0.085,0.972 ± 0.13,0.924 ± 0.06,0.906 ± 0.071,0.947 ± 0.091,0.926 ± 0.12,0.929 ± 0.11
UniProt Q5VWN6,1.05 ± 0.038,0.989 ± 0.045,0.979 ± 0.016,1.05 ± 0.08,1.09 ± 0.045,1.17 ± 0.086,1.17 ± 0.11,1.21 ± 0.09
UniProt Q7L266 and related entries,0.951 ± 0.095,0.894 ± 0.071,0.933 ± 0.092,0.921 ± 0.13,0.935 ± 0.12,0.904 ± 0.11,0.908 ± 0.1,0.948 ± 0.14
CEP350 (UniProt Q5VT06),0.9783 ± 0.0029,1.039 ± 0.0076,0.9907 ± 0.003,1.06 ± 0.06,1.02 ± 0.078,0.996 ± 0.04,0.957 ± 0.041,1.083 ± 0.0084
TRIM65 (UniProt Q6PJ69),1.08 ± 0.05,1.08 ± 0.075,1.02 ± 0.05,0.988 ± 0.035,0.989 ± 0.01,0.949 ± 0.036,0.9644 ± 0.0084,0.93 ± 0.062
UniProt Q7Z6B0 and related entries,0.942 ± 0.046,0.925 ± 0.052,0.918 ± 0.087,0.923 ± 0.076,0.89 ± 0.075,0.923 ± 0.069,0.914 ± 0.069,0.976 ± 0.061
UniProt Q6GMV3,0.902 ± 0.087,0.887 ± 0.048,0.997 ± 0.088,0.925 ± 0.044,0.912 ± 0.034,0.945 ± 0.12,0.969 ± 0.11,1.01 ± 0.098
UniProt Q6ZN18 and related entries,1.02 ± 0.17,1.07 ± 0.08,1.08 ± 0.12,1.01 ± 0.37,1.07 ± 0.02,1.04 ± 0.085,1.11 ± 0.16,1.01 ± 0.31
UniProt Q86U42 and related entries,0.939 ± 0.032,0.921 ± 0.0098,0.972 ± 0.049,0.972 ± 0.023,1.01 ± 0.05,1.02 ± 0.071,1.03 ± 0.067,1.04 ± 0.052
SLC27A4 (UniProt Q6P1M0),1.04 ± 0.011,1.02 ± 0.023,1.05 ± 0.018,1.03 ± 0.017,1.07 ± 0.023,1.05 ± 0.02,1.14 ± 0.064,1.12 ± 0.041
UniProt Q7Z5G4 and related entries,1.16 ± 0.033,1 ± 0.074,1.13 ± 0.13,1.13 ± 0.072,1.11 ± 0.11,0.96 ± 0.025,1.07 ± 0.18,0.928 ± 0.016
UniProt Q86WQ0 and related entries,0.973 ± 0.06,0.939 ± 0.017,0.882 ± 0.094,0.9 ± 0.082,0.884 ± 0.14,0.897 ± 0.096,0.849 ± 0.13,0.862 ± 0.099
CWF19L1 (UniProt Q69YN2),0.987 ± 0.015,0.991 ± 0.052,0.926 ± 0.025,0.924 ± 0.023,0.922 ± 0.013,0.907 ± 0.024,0.898 ± 0.052,0.879 ± 0.049
TRAPPC6B (UniProt Q86SZ2),1.06 ± 0.015,0.988 ± 0.077,0.954 ± 0.058,0.997 ± 0.092,0.999 ± 0.049,0.963 ± 0.088,0.885 ± 0.017,0.958 ± 0.065
UniProt Q7LBC6,1.04 ± 0.063,1.01 ± 0.049,0.981 ± 0.06,0.99 ± 0.065,0.952 ± 0.039,0.96 ± 0.066,0.992 ± 0.03,0.986 ± 0.053
ERAP2 (UniProt Q6P179),1.01 ± 0.015,0.994 ± 0.057,0.961 ± 0.029,0.977 ± 0.063,0.954 ± 0.043,0.957 ± 0.041,0.93 ± 0.038,0.92 ± 0.056

# Random excerpt: 2 entries already listed.
Target,NP40-soluble protein abundance (concentration: 0.1mM),NP40-soluble protein abundance (concentration: 0.5mM),NP40-soluble protein abundance (concentration: 1mM),NP40-soluble protein abundance (concentration: 2mM),NP40-soluble protein abundance (concentration: 4mM),NP40-soluble protein abundance (concentration: 6mM),NP40-soluble protein abundance (concentration: 8mM),NP40-soluble protein abundance (concentration: 10mM)
IRF2BP2 (UniProt Q7Z5L9),0.949 ± 0.018,0.934 ± 0.05,0.997 ± 0.0063,0.99 ± 0.035,0.981 ± 0.034,0.96 ± 0.062,0.999 ± 0.049,1.02 ± 0.025
UniProt Q86SQ7 and related entries,0.967 ± 0.026,0.9735 ± 0.0059,1.1 ± 0.021,1.02 ± 0.09,0.959 ± 0.074,0.969 ± 0.082,0.995 ± 0.08,1.09 ± 0.15
